PubChem BioAssay AID743454 – Peter MacCallum Cancer Centre | 2014
Purpose: 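Knock-downs lowering viability or raising caspase 3/7 activity in vorinostat-treated resistant cells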 (primary screen). System: human HCT116-VR colon cancer cells, selected for vorinostat resistance. Knock-down reagent: siRNA pool against human genes, 40 nM siRNA pool. Time to read-out: vorinostat for 24 h, read-out about 72 h after transfection. Treatment: vorinostat at 2.5 µM final. Measured: 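Two measures, CellTiter-Fluor viability and luminescent caspase 3/7 activity, each as fold change against same-plate mock wells, mean of duplicates, then screen-wide robust z-score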. Reading the numbers: viability robust z-score: higher = more viable cells than screen typical; caspase robust z-score: higher = more caspase 3/7 activity than screen typical. Call rule: 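Hits are knock-downs in viability class RV1/RV2 or caspase class CA1/CA2, excluding ones that killed cells in the no-drug cell-count arm; hits then retested with single siRNAs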.
In all, the deposit lists about 18,000 reagents; shown is an unselected part. Of all reagents, 450 (2.5%) got an active call. 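Single biological run; no consistent viability z cut-off exists, so the class columns, not z-scores, define the calls.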 Reagent sequences are not shown.

gene knocked down	viability hit class	caspase hit class	viability robust z-score	caspase robust z-score	Outcome
HSD17B6	no change	no change	-1.75	2.07	inactive
VAT1	no change	no change	0.32	-1.15	inactive
OR10G8	no change	no change	0.96	-0.9	inactive
CCNA1	no change	no change	0.01	-0.4	inactive
CNTNAP3	no change	no change	-0.38	-0.17	inactive
NRXN1	no change	no change	0.48	-0.27	inactive
KHDC4	no change	no change	-0.45	0.51	inactive
LILRA1	no change	no change	-4.13	-1.01	inactive
GSTCD	no change	no change	2.09	2.36	inactive
MORF4	no change	no change	0.82	-0.38	inactive
GAMT	no change	no change	0.01	-0.42	inactive
KMT2A	no change	no change	0.97	-0.16	inactive
HNF4G	no change	no change	1.22	-0.24	inactive
DIABLO	no change	no change	-0.03	-0.08	inactive
GRPEL1	no change	no change	-0.78	0.52	inactive
WEE1	no change	no change	-1.06	0.68	inactive
UBASH3A	no change	no change	-0.34	0.03	inactive
CTSL	no change	no change	-0.62	-0.44	inactive
CDC37L1	no change	no change	0.17	0.05	inactive
STMN3	no change	no change	-0.04	3.52	inactive
PTX3	no change	no change	1.19	-0.67	inactive
SIGLEC5	no change	no change	0.26	-0.57	inactive
MUTYH	no change	no change	0.78	0.1	inactive
VARS2	no change	no change	2.25	0.04	inactive
VPS4A	no change	CA2 (caspase activation)	-0.56	5.3	active
WDTC1	no change	no change	-1.04	-0.29	inactive
SLC16A4	no change	no change	1.29	-1.31	inactive
ARPC1A	no change	no change	0.8	0.42	inactive
KRTAP5-1	no change	no change	0.25	0.6	inactive
FOXP2	no change	no change	-0.08	1.98	inactive
CLASP1	no change	no change	0.89	4	inactive
TRIM67	no change	no change	1.42	-0.16	inactive
MAP6	no change	no change	0.6	-0.38	inactive
BANK1	no change	no change	-0.14	-0.9	inactive
SHF	no change	no change	-1.88	1.75	inactive
LY6E	no change	no change	-0.66	-0.31	inactive
VPS26B	no change	no change	1.34	2.95	inactive
PCDHB15	no change	no change	-0.79	-1.01	inactive
STAT5B	no change	no change	-0.2	-0.2	inactive
OR2AG1	no change	no change	-1.52	0.01	inactive
EXOC8	no change	no change	-0.18	3.58	inactive
KRT76	no change	no change	-0.71	-0.23	inactive
TBC1D13	no change	no change	2.44	-0.68	inactive
PSMA4	no change	no change	-3.96	3.2	inactive
KIR3DX1	no change	no change	-1.08	-0.32	inactive
NOX1	no change	no change	-0.3	-0.6	inactive
ZNF133	no change	no change	-0.6	-1.31	inactive
DNAAF2	no change	no change	-0.48	0.1	inactive
ODAPH	no change	no change	0.7	-0.93	inactive
WDR20	no change	no change	0.17	1.04	inactive
OR2K2	no change	no change	0.53	0.36	inactive
GABRA3	no change	no change	-0.66	1.27	inactive
CHAC1	no change	no change	-1.51	-0.22	inactive
PTPN3	no change	no change	0.25	0.29	inactive
SLC31A2	no change	no change	-1.23	1.08	inactive
SLFN5	no change	no change	-0.38	0.94	inactive
POFUT2	no change	no change	-1.15	0.93	inactive

Entries listed so far whose gene name begins with C or c:
gene knocked down	viability hit class	caspase hit class	viability robust z-score	caspase robust z-score	Outcome
CCNA1	no change	no change	0.01	-0.4	inactive
CNTNAP3	no change	no change	-0.38	-0.17	inactive
CTSL	no change	no change	-0.62	-0.44	inactive
CDC37L1	no change	no change	0.17	0.05	inactive
CLASP1	no change	no change	0.89	4	inactive
CHAC1	no change	no change	-1.51	-0.22	inactive
